Test results published in the supplement of paper PMC6289059.
Some of the results follow. Repeats are few or missing, and single values can be far off.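 The cells are hepatocyte-like cells grown from human stem cells in which the DGUOK gene was disrupted by CRISPR, a model of liver mtDNA depletion syndrome. Each well's ATP signal was scored against the other wells on its plate, and a drug counted as a primary hit when its score was 3 or higher.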

Each compound was assayed on DGUOK Δ14/Δ5 iPSC-derived hepatocyte-like cells (SV20) (assay: ATP level (CellTiter-Glo luminescence) Z score relative to plate distribution, under 2-DG glycolysis block; higher = more cellular ATP (rescue of mitochondrial ATP production)). Details: 5 µM; treatment time: day 15 to day 20 of differentiation (5 days); 2-deoxy-D-glucose: 20 mM for 24 h before assay.

Structure (SMILES)	ATP level
COc1ccc(Cc2nccc3cc(OC)c(OC)cc23)cc1OC	inactive: 1.73
COc1ccc(C=O)cc1	inactive: -0.918
COc1cc2c(c(OC)c1OC)-c1ccc(=O)c(O)cc1[C@@H](NC(C)=O)CC2	inactive: -0.256
CCC1(CC)C(=O)C=CNC1=O	inactive: -0.348
C[C@@H]1NCCc2cc(O)c(O)cc21	inactive: 2.92
O=C(NC(=O)c1c(F)cccc1F)Nc1cc(Cl)c(OC(F)(F)C(F)C(F)(F)F)cc1Cl (stereo not given)	inactive: 0.221
CNCC(=O)c1ccc(O)c(O)c1	active: 3.02
COc1cc2c(cc1OC)[C@H](C)NCC2	inactive: 1.8
COc1cc2c(cc1OC)[C@@]13CCN4CC5=CCO[C@H]6CC(=O)N2[C@H]1[C@H]6[C@H]5C[C@H]43	inactive: -0.1
C[C@H](N)Cc1ccccc1	inactive: -0.87
CC(C)(C)NCC(O)c1cc(Cl)c(N)c(Cl)c1 (stereo not given)	inactive: 0.883
COC(=O)C1=CCCN(C)C1	inactive: -5.27
C=C(C)[C@H]1Cc2c(ccc3c2O[C@@H]2COc4cc(OC)c(OC)cc4[C@@H]2C3=O)O1	inactive: -13.9
CC(=O)O[C@H]1C[C@H](O[C@H]2[C@@H](O)C[C@H](O[C@H]3[C@@H](O)C[C@H](O[C@H]4CC[C@@]5(C)[C@H](CC[C@@H]6[C@@H]5C[C@@H](O)[C@]5(C)[C@@H](C7=CC(=O)OC7)CC[C@]65O)C4)O[C@@H]3C)O[C@@H]2C)O[C@H](C)[C@H]1O[C@@H]1O[C@H](CO)[C@@H](O)[C@H](O)[C@H]1O	inactive: -17.5
O=C1C=C2C(=CCOC2O)O1 (stereo not given)	active: 3.55
COc1ccc(CCN2CCC(Nc3nc4ccccc4n3Cc3ccc(F)cc3)CC2)cc1	inactive: -8.11
CC1=C2[C@H]3OC(=O)[C@@H](C)[C@@H]3CC[C@@]2(C)C=CC1=O	inactive: 0.929
CCC(N)C(O)c1ccc(O)c(O)c1 (stereo not given)	inactive: -0.693
Oc1cc(Cl)ccc1Oc1ccc(Cl)cc1Cl	inactive: 0.845
CC1(C)C(C=C(Cl)Cl)C1C(=O)OC(C#N)c1cccc(Oc2ccccc2)c1 (stereo not given)	inactive: -1.89
c1cncc(C2=NCCC2)c1	inactive: 0.00614
Cc1nccc2c1[nH]c1ccccc12	inactive: -0.385
C[C@]12C=CC(=O)C=C1CC[C@@H]1[C@@H]2CC[C@]2(C)C(=O)CC[C@@H]12	inactive: -0.541
CCN1C[C@]2(COC)[C@H](O)C[C@H](OC)[C@@]34[C@@H]5C[C@@]6(O)[C@H](OC(=O)c7ccccc7)[C@@H]5[C@@](OC(C)=O)([C@@H]([C@H](OC)[C@H]23)[C@@H]14)[C@@H](O)[C@@H]6OC	inactive: -1.56
CC[C@@]1(O)C[C@H](O[C@H]2C[C@H](N(C)C)[C@H](O)[C@H](C)O2)c2c(cc3c(c2O)C(=O)c2c(O)ccc(O)c2C3=O)[C@H]1C(=O)OC	active: 6.21
O=[N+]([O-])c1cc([As](=O)(O)O)ccc1O	inactive: -3.81
CCC1(c2ccc(N)cc2)CCC(=O)NC1=O (stereo not given)	inactive: 0.232
CCN(C)C(=O)Oc1cccc([C@H](C)N(C)C)c1	inactive: -3.76

Structure (SMILES)	ATP level
C[C@@H](N)[C@@H](O)c1ccccc1	inactive: 0.0724
CN(C)C(=O)Oc1cc(OC(=O)N(C)C)cc(C(O)CNC(C)(C)C)c1 (stereo not given)	inactive: -1.47
NCCc1ccc(O)cc1	inactive: 2.5
CC[C@@H](c1cccc(O)c1)[C@@H](C)CN(C)C	inactive: -1.85
C[N+]1(C)[C@@H]2C[C@@H](OC(=O)[C@H](CO)c3ccccc3)C[C@H]1[C@@H]1O[C@@H]12	inactive: 1.03
C[C@]12CC[C@H](O)C[C@@H]1CC[C@@H]1[C@@H]2CC[C@]2(C)C(=O)CC[C@@H]12	inactive: -0.131
CCn1cc(C(=O)O)c(=O)c2cc3c(cc21)OCO3	inactive: -4.76
C[N+]1([O-])[C@@H]2CC[C@H]1C[C@@H](OC(=O)C(CO)c1ccccc1)C2 (stereo not given in full)	inactive: 2.05
[N-]=[N+]=CC(=O)OC[C@H](N)C(=O)O	active: 3.24
N=C1NC(=O)N2CC12 (stereo not given)	active: 3.63
C[C@@H]1O[C@@H](O[C@H]2C[C@@H](O)[C@]3(CO)[C@H]4[C@H](O)C[C@]5(C)[C@@H](C6=CC(=O)OC6)CC[C@]5(O)[C@@H]4CC[C@]3(O)C2)[C@H](O)[C@H](O)[C@H]1O	inactive: -6.87
COc1ccc2c3c([nH]c2c1)C(C)=NCC3	inactive: -6.24
Oc1ccc(Cl)cc1Cc1cc(Cl)ccc1O	inactive: -7.37
Cl[C@H]1[C@H](Cl)[C@@H](Cl)[C@@H](Cl)[C@H](Cl)[C@H]1Cl	inactive: -2.57
CC(O)CN1CCN(CC(=O)[O-])CCN(CC(=O)[O-])CCN(CC(=O)[O-])CC1.[Gd+3] (stereo not given)	inactive: 0.778
COc1cc([C@@H]2c3cc4c(cc3[C@@H](O)[C@H]3COC(=O)[C@H]23)OCO4)cc(OC)c1O	inactive: -10.1
C[C@@]12C(=O)OC(=O)[C@]1(C)[C@H]1CC[C@@H]2O1	inactive: -14.1
COC(C)(C)CCC[C@H](C)C/C=C/C(C)=C/C(=O)OC(C)C	inactive: 2.04
CCCC(C)(COC(N)=O)COC(=O)NC(C)C (stereo not given)	inactive: -0.128
C[N+]1(C)CCCC(OC(=O)C(O)(c2ccccc2)c2ccccc2)C1 (stereo not given)	inactive: 0.504
COc1cc(OC)c(OC)cc1C=O	inactive: 1.15
C#CC(C)(O)CC (stereo not given)	inactive: -1.67
CC(=O)O[C@@H]1C[C@H]2C(C)(C)C(=O)C=C[C@]2(C)[C@H]2CC[C@]3(C)C(=CC(=O)O[C@H]3c3ccoc3)[C@@]21C	inactive: -5.98
COc1cc2c(cc1O)C[C@H]1c3c(cc(O)c(OC)c3-2)CCN1C	inactive: 1.24
CC1(C)C(=O)C=C[C@@]2(C)C1=C(O)C(=O)[C@]1(C)[C@@H]2CC[C@@]2(C)[C@H](c3ccoc3)C[C@H]3O[C@]321	inactive: 1.34
O=C1CCO1	active: 5.91
Cc1c(O)c(O)cc2c1CC=C1[C@@]2(C)CC[C@@]2(C)[C@@H]3C[C@](C)(C(=O)O)CC[C@]3(C)CC[C@]12C	inactive: -9.27

11 entries from above, with bars between the fields.
Structure (SMILES) | ATP level
COc1ccc(Cc2nccc3cc(OC)c(OC)cc23)cc1OC | inactive: 1.73
C[C@@H]1NCCc2cc(O)c(O)cc21 | inactive: 2.92
CNCC(=O)c1ccc(O)c(O)c1 | active: 3.02
Oc1cc(Cl)ccc1Oc1ccc(Cl)cc1Cl | inactive: 0.845
Cc1nccc2c1[nH]c1ccccc12 | inactive: -0.385
CC[C@@]1(O)C[C@H](O[C@H]2C[C@H](N(C)C)[C@H](O)[C@H](C)O2)c2c(cc3c(c2O)C(=O)c2c(O)ccc(O)c2C3=O)[C@H]1C(=O)OC | active: 6.21
CN(C)C(=O)Oc1cc(OC(=O)N(C)C)cc(C(O)CNC(C)(C)C)c1 (stereo not given) | inactive: -1.47
N=C1NC(=O)N2CC12 (stereo not given) | active: 3.63
C[C@@H]1O[C@@H](O[C@H]2C[C@@H](O)[C@]3(CO)[C@H]4[C@H](O)C[C@]5(C)[C@@H](C6=CC(=O)OC6)CC[C@]5(O)[C@@H]4CC[C@]3(O)C2)[C@H](O)[C@H](O)[C@H]1O | inactive: -6.87
CCCC(C)(COC(N)=O)COC(=O)NC(C)C (stereo not given) | inactive: -0.128
COc1cc2c(cc1O)C[C@H]1c3c(cc(O)c(OC)c3-2)CCN1C | inactive: 1.24
